{"source": "patent US20050048490A1", "about": "“Proteins associated with cell growth, differentiation, and death” (incyte corp., priority 2002, published 2005)", "test_system": "SEQ ID NO:96", "assay": "Microarray expression analysis, steroid-treated versus untreated C3A cells", "assay_type": "cell-based, human", "conditions": "early confluent C3A cells treated at 1, 10, and 100 μM for 1, 3, and 6 hours", "method": "Total RNA is isolated from tissue samples using the guanidinium thiocyanate method and poly(A)^+ RNA is purified using the oligo-(dT) cellulose method. Each poly(A)^+ RNA sample is reverse transcribed using MMLV reverse-transcriptase, 0.05 pg/μl oligo-(dT) primer (21mer), 1× first strand buffer, 0.03 units/μl RNase inhibitor, 500 μM dATP, 500 μM dGTP, 500 μM dTTP, 40 μM dCTP, 40 μM dCTP-Cy3 (BDS) or dCTP-Cy5 (Amersham Biosciences). The reverse transcription reaction is performed in a […] containing 200 ng poly(A)^+ RNA with GEMBRIGHT kits (Incyte Genomics). Specific control poly(A)^+ RNAs are synthesized by in vitro transcription from non-coding yeast genomic DNA. […]\nSequences of the present invention are used to generate array elements. […] Array elements are amplified in thirty cycles of PCR from an initial quantity of 1-2 ng to a final quantity greater than 5 μg. […]\nReporter-labeled hybridization complexes are detected with a microscope equipped with an Innova 70 mixed gas 10 W laser (Coherent, Inc., Santa Clara Calif.) capable of generating spectral lines at 488 nm for excitation of Cy3 and at 632 nm for excitation of Cy5. […]\nA grid is superimposed over the fluorescence signal image such that the signal from each spot is centered in each element of the grid. […]", "note": "For at least one compound, name, drawing or mass did not settle the structure.", "data": [{"smiles": "C[C@@H]1C[C@H]2[C@@H]3CCC4=CC(=O)C=C[C@]4(C)[C@@]3(F)[C@@H](O)C[C@]2(C)[C@@]1(O)C(=O)CO", "note": "[dexamethasone, Dexamethasone]", "values": [{"measurement": "expression of SEQ ID NO:96", "value": "decreased expression"}]}]}
